In patent US8309522B2, “Neuromedin and FN-38 peptides for treating psychiatric diseases” (Amylin Pharmaceuticals, LLC, priority 2007, dated 2012):
At least one compound was matched to its structure with a doubt left.

Test system: mice
Assay: Marble burying
Assay type: in vivo
Conditions: CDP at 15 mg/kg, 15-30 minutes prior to the test; positive control; statistically significant; FIG. 2
Protocol: Animal behavior assays were performed to test for anxiolytic and antipsychotic effects of FN-38 (SEQ ID NO:5) administration. […] These specific behavioral tests are known to be sensitive to anxiolytic or antipsychotic drugs. For these assays, FN-38 was administered to mice at doses ranging from 0.1 to 10 mg/kg, intraperitoneally, and their performance in the assay was assessed.
Marble burying is used as a model for both anxiety and obsessive-compulsive disorder. See, for example, Chaki et al., 2003, J. Pharmacol. Exp. Ther. 304:818-826. Anxiolytics suppress marble burying activity. Benzodiazepine chlordiazepoxide (CDP) is a known anxiolytic agent. Mice were injected with the test agent (FN-38 (SEQ ID NO:5) at 0.1, 1.0 or 10 mg/kg, 15 mg/kg CDP, or vehicle (water)) 15-30 minutes prior to the test. Mice were then placed individually in clean cages containing 5-cm of hard wood bedding and 20 marbles spaced evenly in rows of five. The number of marbles buried in 30 minutes was recorded. Results of this assay are shown in FIG. 2 where * is P<0.05 vs. vehicle control. […] These reductions in marble burying were statistically significant.

CNC1=Nc2ccc(Cl)cc2C(c2ccccc2)=[N+]([O-])C1 [CDP, chlordiazepoxide]
number of marbles buried in 30 minutes: reduced the number of marbles buried
